At least one structure is not confirmed: it was looked up by name or label, or the drawing left a doubt.
System: Dermatophagoides farinae (Der f)-induced AD-like skin inflammation
Test: Der f-induced atopic dermatitis mouse model
Assay type: in vivo, Balb/c mice
Description: Der f has been purchased from Greer Laboratories and a Der f solution has been prepared in 70% DMSO in MilliQ water. 375 μg of Der f has been applied during 7 weeks on the left ear of mice. Compounds to be tested were applied every day of the week except during the weekend, on the Der f treated ear from week 4 until day 44. • 1.2. Compounds • 1.2.1. MK3207 (CD10192/41) MK3207 (CD10192/41) has been provided by Galderma and 3% of MK3207 (CD10192/41) solutions in ethanol have been prepared. • 1.2.2. Triamcinolone Acetonide Triamcinolone acetonide has been chosen as positive control for the Der f model. 0.01% of triamcinolone acetonide solution in ethanol has been used. • 1.2.3. Ethanol Ethanol 100 has been chosen as a vehicle to solubilize the compounds. • 1.3. Mice Balb/c mice strain has been used for the study. These animals have been obtained from controlled breeding and were specific pathogen free. The animals have been provided by Janvier SAS, France. • 1.4. Protocol AD-like lesions have been induced by topical application of 375 μl of Der f solution on each side of the left ear for 7 weeks at day 1, day 8, day 15, day 22, day 29, day 36 and day 43. Mice have been treated from day 20 to day 43 five days by week with the different solutions administrated by the topical route. Measurement of ear swelling has been monitored 24 hours after each allergen application. After day 19, ear swelling has been daily measured before compound application. After mouse euthanasia, at Day 44 the left ear has been collected and has been washed in ethanol 70% and has been rinsed in PBS. Skin biopsies of the left ear, have then been collected for cytokines profile quantification with Luminex technique and for the quantification of the eosinophil peroxidase thanks to the ELISA method. Draining lymph nodes have been collected and cultivated a whole night restimulated or not with 0.5 mg/ml of Der f extract before quantifying the number of Der f specific lymphocytes T producing INFγ.

[1] = triamcinolone acetonide 0.01% in ethanol, topical

Structure (SMILES): CC1(C)O[C@@H]2C[C@H]3[C@@H]4CCC5=CC(=O)C=C[C@]5(C)[C@@]4(F)[C@@H](O)C[C@]3(C)[C@]2(C(=O)CO)O1 [triamcinolone acetonide, Triamcinolone acetonide, reference compound]
- production of IFNγ by lymphocyte T cells (draining lymph nodes restimulated with Der f, MK3207 3%, triamcinolone acetonide 0.01% topical): reduced
- ear swelling / ear edema (topical in ethanol, MK3207 3% (day 44), triamcinolone acetonide 0.01%): reduced
- cytokine production [1]: reduced
- inflammatory response [1]: inhibited

— patent US20180185360A1, “CGRP RECEPTOR ANTAGONIST COMPOUNDS FOR TOPICAL TREATMENT OF SKIN DISORDERS” (GALDERMA RESEARCH & DEVELOPMENT, priority 2015, published 2018)
